From the supplement of paper PMC10331698
± gives the standard deviation of the averaged measurements. Most entries show no effect beyond the scatter of the controls.

Columns and labels:
Assay in all cases: level (log10 ratio to DMSO vehicle control); higher = higher biomarker level / cell amount than vehicle control
[1] = compound: FC(F)(F)C(F)(F)C(F)(F)C(F)(F)C(F)(F)C(F)(F)I [Perfluoro-1-iodohexane]; conditions: in DMSO
Protocol: (§1)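 BioMAP Diversity Plus panel of 12 human primary cell co-culture systems (3C, 4H, LPS, SAg, BT, BF4T, BE3C, CASM3C, HDF3CGF, KF3CT, MyoF, Mphg). Compounds were added 1 h before stimulation and left for 24 h (MyoF 48 h; BT 72 h for soluble read-outs or 6 d for IgG). Biomarkers were read by ELISA, cytotoxicity by SRB, PBMC viability and proliferation by Alamar Blue. Each well value was divided by the mean of 8 DMSO control wells on the same plate and log10 transformed; duplicate blinded samples were tested at 4 concentrations.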

[2] = compound: O=S(=O)(O)C(F)(F)C(F)(F)C(F)(F)C(F)(F)C(F)(F)C(F)(F)F [Perfluorohexanesulfonic acid]; conditions: 2200 nM; in DMSO
Protocol: as §1

[3] = compound: OCCCC(F)(F)C(F)(F)C(F)(F)C(F)(F)C(F)(F)C(F)(F)C(F)(F)F [7:3 Fluorotelomer alcohol]; conditions: 2200 nM; in DMSO
Protocol: as §1

[4] = compound: C=CC(=O)OCCC(F)(F)C(F)(F)C(F)(F)C(F)(F)F [2-(Perfluorobutyl)ethyl acrylate]; conditions: 2200 nM; in DMSO
Protocol: as §1

[5] = compound: O=C(O)C(F)(F)C(F)(F)C(F)(F)C(F)(F)C(F)(F)C(F)(F)C(F)(F)C(F)(F)C(F)(F)C(F)(F)C(F)(F)C(F)(F)C(F)(F)F [Perfluorotetradecanoic acid]; conditions: in DMSO
Protocol: as §1

[6] = compound: OCC(F)(F)C(F)(F)C(F)(F)CO [Hexafluoroamylene glycol]; conditions: 2200 nM; in DMSO
Protocol: as §1

[7] = compound: C=CC(=O)OCCC(F)(F)C(F)(F)C(F)(F)C(F)(F)C(F)(F)C(F)(F)C(F)(F)C(F)(F)F [8:2 Fluorotelomer acrylate]; conditions: 2200 nM; in DMSO
Protocol: as §1

[8] = compound: O=C(O)C=C(C(F)(F)F)C(F)(F)F [3,3-Bis(trifluoromethyl)-2-propenoic acid]; conditions: in DMSO
Protocol: as §1

[9] = compound: O=S(=O)(O)CCC(F)(F)C(F)(F)C(F)(F)C(F)(F)F [4:2 Fluorotelomer sulfonic acid]; conditions: 2200 nM; in DMSO
Protocol: as §1

[10] = compound: FC(F)(F)C(F)(C(F)(F)F)C(F)(F)C(F)(F)CC1CO1 [3-(Perfluoro-3-methylbutyl)-1,2-propenoxide]; conditions: in DMSO
Protocol: as §1

[11] = compound: C=CC(=O)OCC(F)(F)C(F)(F)C(F)(F)COC(=O)C=C [1H,1H,5H,5H-Perfluoro-1,5-pentanediol diacrylate]; conditions: 2200 nM; in DMSO
Protocol: as §1

[12] = compound: O=C(Cl)C(F)(F)C(F)(F)C(F)(F)C(=O)Cl [Hexafluoroglutaryl chloride]; conditions: 2200 nM; in DMSO
Protocol: as §1

[13] = compound: FC(F)(I)C(F)(F)C(F)(F)C(F)(F)C(F)(F)C(F)(F)I [1,6-Diiodoperfluorohexane]; conditions: 2200 nM; in DMSO
Protocol: as §1

| Test System | level (log10) ([1]; 2200 nM) | level (log10) ([1]; 6700 nM) | level (log10) ([1]; 20000 nM) | level (log10) ([1]; 60000 nM) | level (log10) [2] | level (log10) [3] | level (log10) [4] | level (log10) ([5]; 740 nM) | level (log10) ([5]; 2200 nM) | level (log10) [6] | level (log10) [7] | level (log10) ([8]; 2200 nM) | level (log10) ([8]; 6700 nM) | level (log10) ([8]; 20000 nM) | level (log10) ([8]; 60000 nM) | level (log10) [9] | level (log10) ([10]; 740 nM) | level (log10) ([10]; 2200 nM) | level (log10) [11] | level (log10) [12] | level (log10) [13] |
| --- | --- | --- | --- | --- | --- | --- | --- | --- | --- | --- | --- | --- | --- | --- | --- | --- | --- | --- | --- | --- | --- |
| 3C:CD87/uPAR | -0.015 ± 0.027 | -0.0125 ± 0.032 | 0.004 ± 0.0071 | 0.0285 ± 0.0035 | -0.002 ± 0.0099 | -0.037 ± 0.035 | 0.0035 ± 0.036 | 0.0625 ± 0.043 | 0.0715 ± 0.054 | -0.006 ± 0.025 | 0.0075 ± 0.0064 | 0.0275 ± 0.00071 | 0.0225 ± 0.0035 | 0.014 ± 0.02 | -0.0035 ± 0.013 | -0.0205 ± 0.0021 | -0.0125 ± 0.013 | -0.013 ± 0.024 | -0.001 ± 0.031 | -0.0135 ± 0.0064 | -0.0025 ± 0.026 |
| lMphg:sIL-10 | 0.02 ± 0.013 | -0.0575 ± 0.1 | -0.048 ± 0.0042 | -0.047 ± 0.0057 | 0.0425 ± 0.043 | -0.021 ± 0.0099 | 0.0355 ± 0.042 | -0.0105 ± 0.029 | -0.039 | 0.0355 ± 0.084 | -0.078 ± 0.0057 | -0.158 ± 0.0085 | -0.2 ± 0.0071 | -0.325 ± 0.029 | -0.547 ± 0.028 | 0.063 ± 0.14 | 0.022 ± 0.023 | -0.0075 ± 0.0078 | -0.011 ± 0.023 | -0.071 ± 0.044 | -0.064 ± 0.065 |
| LPS:CD141/Thrombomodulin | 0.005 ± 0.018 | -0.0175 ± 0.0035 | -0.0095 ± 0.025 | -0.0105 ± 0.0092 | -0.011 ± 0.035 | -0.011 ± 0.0042 | 0.008 ± 0.059 | 0.035 ± 0.028 | 0.003 ± 0.079 | 0.081 ± 0.062 | 0.013 ± 0.12 | -0.048 ± 0.064 | -0.0835 ± 0.093 | -0.091 ± 0.14 | -0.026 ± 0.12 | 0.0355 ± 0.026 | 0.023 ± 0.024 | 0.017 ± 0.011 | 0.063 ± 0.033 | 0.016 ± 0.038 | -0.0265 ± 0.022 |
| CASM3C:CD142/Tissue Factor | 0.0005 ± 0.019 | -0.009 ± 0.013 | -0.018 ± 0.0042 | -0.031 | -0.0045 ± 0.0092 | -0.001 ± 0.028 | -0.035 ± 0.023 | -0.001 ± 0.0014 | -0.0175 ± 0.0035 | 0.022 ± 0.059 | -0.0485 ± 0.0064 | 0.0175 ± 0.0021 | 0.055 ± 0.018 | -0.009 ± 0.041 | -0.0635 ± 0.06 | 0.016 ± 0.017 | -0.0225 ± 0.019 | -0.0175 ± 0.021 | -0.0145 ± 0.043 | -0.0405 ± 0.13 | -0.024 ± 0.0071 |
| BT:B cell Proliferation | 0.003 ± 0.031 | -0.011 ± 0.054 | -0.008 ± 0.011 | -0.0135 ± 0.025 | -0.0025 ± 0.039 | 0.0225 ± 0.0078 | 0.008 ± 0.013 | -0.011 ± 0.0099 | -0.0015 ± 0.0078 | 0.0055 ± 0.0064 | 0.021 ± 0.0071 | -0.0005 ± 0.026 | -0.0145 ± 0.0021 | -0.0385 ± 0.0035 | -0.121 ± 0.0064 | 0.058 ± 0.0057 | 0.0135 ± 0.016 | -0.026 ± 0.0085 | -0.031 ± 0.035 | 0.0105 ± 0.0092 | -0.009 ± 0.025 |
| KF3CT:TIMP-2 | -0.006 ± 0.0028 | 0.0015 ± 0.013 | 0.0135 ± 0.019 | 0.0035 ± 0.011 | 0.012 ± 0.0085 | -0.0085 ± 0.013 | -0.0045 ± 0.056 | -0.023 ± 0.038 | 0.017 ± 0.0071 | -0.03 ± 0.0042 | -0.005 ± 0.037 | 0.0065 ± 0.032 | 0.006 ± 0.048 | -0.016 ± 0.021 | 0.039 ± 0.052 | -0.025 ± 0.014 | -0.0095 ± 0.0035 | -0.0025 ± 0.022 | 0.009 ± 0.013 | 0.0005 ± 0.013 | -0.006 ± 0.035 |
